Library screen at single concentrations

Protein sequences, listed by entry. Tags and fused reporters are not part of them. Residues count along the entry.
UniProt A4I591, 1-473: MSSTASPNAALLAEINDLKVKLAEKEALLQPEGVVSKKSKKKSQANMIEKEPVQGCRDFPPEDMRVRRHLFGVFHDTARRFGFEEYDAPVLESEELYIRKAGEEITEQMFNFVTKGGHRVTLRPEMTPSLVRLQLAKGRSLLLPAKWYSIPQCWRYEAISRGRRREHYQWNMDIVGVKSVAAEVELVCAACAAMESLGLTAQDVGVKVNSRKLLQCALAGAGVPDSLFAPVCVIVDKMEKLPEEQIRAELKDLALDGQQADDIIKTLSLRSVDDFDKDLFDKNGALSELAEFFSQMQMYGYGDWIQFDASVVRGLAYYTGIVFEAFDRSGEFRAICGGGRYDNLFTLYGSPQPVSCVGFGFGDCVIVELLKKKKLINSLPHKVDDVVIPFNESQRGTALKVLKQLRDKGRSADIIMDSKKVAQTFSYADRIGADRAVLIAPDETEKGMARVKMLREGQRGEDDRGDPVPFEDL
UniProt I6X8D2, whole entry: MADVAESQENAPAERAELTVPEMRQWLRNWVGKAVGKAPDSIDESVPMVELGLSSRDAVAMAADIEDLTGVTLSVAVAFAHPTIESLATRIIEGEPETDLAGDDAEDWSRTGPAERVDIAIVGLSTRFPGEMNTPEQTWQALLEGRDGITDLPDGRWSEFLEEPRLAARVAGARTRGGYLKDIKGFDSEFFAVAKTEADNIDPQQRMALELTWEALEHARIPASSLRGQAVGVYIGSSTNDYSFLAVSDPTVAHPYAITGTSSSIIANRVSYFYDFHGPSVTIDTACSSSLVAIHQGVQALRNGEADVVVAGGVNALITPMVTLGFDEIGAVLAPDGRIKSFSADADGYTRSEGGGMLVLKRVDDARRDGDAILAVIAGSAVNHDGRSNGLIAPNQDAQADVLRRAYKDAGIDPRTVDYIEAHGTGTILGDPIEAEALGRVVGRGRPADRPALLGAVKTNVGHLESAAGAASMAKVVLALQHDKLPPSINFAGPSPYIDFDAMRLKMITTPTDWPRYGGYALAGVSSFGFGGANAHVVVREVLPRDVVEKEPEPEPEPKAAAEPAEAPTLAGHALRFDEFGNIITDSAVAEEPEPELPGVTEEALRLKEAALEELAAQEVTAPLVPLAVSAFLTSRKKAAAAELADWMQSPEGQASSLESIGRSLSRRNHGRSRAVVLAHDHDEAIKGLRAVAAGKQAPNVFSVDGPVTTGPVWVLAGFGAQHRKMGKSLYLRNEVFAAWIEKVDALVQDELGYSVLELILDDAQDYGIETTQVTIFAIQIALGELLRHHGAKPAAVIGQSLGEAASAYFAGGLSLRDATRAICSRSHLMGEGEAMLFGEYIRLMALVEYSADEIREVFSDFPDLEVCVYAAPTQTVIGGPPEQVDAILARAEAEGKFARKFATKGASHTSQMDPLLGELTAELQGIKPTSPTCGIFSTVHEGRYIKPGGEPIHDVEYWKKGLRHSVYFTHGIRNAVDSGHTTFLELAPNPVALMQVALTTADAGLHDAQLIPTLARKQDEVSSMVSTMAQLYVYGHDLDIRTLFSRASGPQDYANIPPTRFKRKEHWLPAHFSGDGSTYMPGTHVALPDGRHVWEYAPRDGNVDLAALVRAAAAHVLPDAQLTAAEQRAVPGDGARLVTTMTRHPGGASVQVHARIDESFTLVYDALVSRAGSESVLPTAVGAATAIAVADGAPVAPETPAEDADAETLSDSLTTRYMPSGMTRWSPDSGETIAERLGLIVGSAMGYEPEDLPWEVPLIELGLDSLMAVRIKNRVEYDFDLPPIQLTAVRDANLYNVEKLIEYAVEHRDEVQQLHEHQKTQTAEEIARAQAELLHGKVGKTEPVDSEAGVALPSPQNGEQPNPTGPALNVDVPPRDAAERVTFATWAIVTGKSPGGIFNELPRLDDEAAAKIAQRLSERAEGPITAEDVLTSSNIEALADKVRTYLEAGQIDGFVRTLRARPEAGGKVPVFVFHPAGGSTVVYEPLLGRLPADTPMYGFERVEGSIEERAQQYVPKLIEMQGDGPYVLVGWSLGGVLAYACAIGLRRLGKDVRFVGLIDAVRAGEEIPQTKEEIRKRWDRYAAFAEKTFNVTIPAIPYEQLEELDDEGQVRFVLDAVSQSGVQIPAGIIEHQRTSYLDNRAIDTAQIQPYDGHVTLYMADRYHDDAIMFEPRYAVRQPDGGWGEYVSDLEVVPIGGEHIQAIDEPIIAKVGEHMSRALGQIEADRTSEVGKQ

Source: ChEMBL document CHEMBL3988442, “University of Dundee, Small-Polar-MMV Screening Library” (2021).

The filed quantity is “Percent Effect” (%).
The controls that fix the scale are not given in the record; negative values are as filed.
Compounds were drawn at random from those tested, without regard to their results.
Two or more numbers in one place are separate tests of the same structure; such repeats can differ widely.
A dash means the value is not listed here; it may have been measured.

A: 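Histidine-tRNA ligase, Leishmania infantum (UniProt A4I591). Enzyme assay of histidyl-tRNA synthetase; the read-out is not stated. Concentration: 30 µM. Higher reads as stronger inhibition (inferred: compounds with an IC50 in retests scored well above the rest). The assay is labelled LdHisRS but filed under L. infantum. Size under these conditions: about 69,000 compounds, about 410 of them at 50% or above in at least one test.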
B: 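Polyketide synthase Pks13, Mycobacterium tuberculosis (UniProt I6X8D2). Enzyme assay of the thioesterase domain of polyketide synthase 13; the read-out is not stated. Concentration: 30 µM. The record gives no direction; the compounds picked for IC50 retests had high values, so higher reads as stronger inhibition. About 67,000 compounds were tested under these conditions; 0.46% (about 300) showed 50% or more at least once.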
C: 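Cell assay of Leishmania donovani living inside macrophages; the read-out is not stated. Concentration: 30 µM. The record gives no direction; compounds that gave an IC50 in retests scored well above the rest, so higher reads as stronger inhibition. Size under these conditions: about 69,000 compounds, about 1,000 of them at 50% or above in at least one test.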

Compound	A	B	C
CCC(CC)n1ncc(C(=O)NS(=O)(=O)c2ccsc2)c1C	5.085%	-7.993%	17.11%
c1ccc(C[C@H]2[C@H](N3CCOCC3)CCN2Cc2cccnc2)cc1	13.21%	-14.09%	-11.94%
CCN(C)c1ncnc2c1CCN(CC1CCOC1)CC2.O=C(O)C(F)(F)F (stereo not drawn)	-	-	-1.105%
CN(C)CCN1CC(C(=O)N2CCC(c3cc(=O)[nH]cn3)CC2)CC1=O (stereo not drawn)	8.475%	-12.29%	6.47%
c1cc(CNc2ncc(-c3cnccn3)c(C3CC3)n2)ccn1	5.634%	1.663%	36.5%
[H][C@@]12COC[C@]1(COc1cccnc1)CN(C(=O)Cc1ccsc1)C2	-	-	16.46%
NS(=O)(=O)Cc1ccc(CNc2cncc(-n3cccn3)n2)cc1	5.769%	132.6%	-4.911%
OCc1c(Cl)ncn1-c1ccccc1	15.96%	-10.66%	61.75%
Cc1nc(C)c(CC(=O)N2CCC(c3ccn4nccc4n3)CC2)s1	12.08%	3.656%	-20.77%
COc1ccc(C)cc1CC(=O)Nc1cc(C)n[nH]1	8.065%	-11.5%	22.08%
Cn1nccc1CCC(=O)N1CCCC(Cc2cccnc2)C1 (stereo not drawn)	10.14%	0.05674%	-9.85% and -0.2342%
CCC(NC(=O)CCNC(=O)c1ccccc1F)c1cc(C)ccn1 (stereo not drawn)	18.64%	-17.04%	16.02%
[H][C@]12CCN(C(=O)Cc3ccccc3)CC[C@@]1([H])S(=O)(=O)NC2	-	-	-8.463% and 17.36%
CCc1ccc(C(=O)N2CCCCC2Cn2cccn2)o1 (stereo not drawn)	11.01%	-30.49%	17.06%
c1cn2c(n1)CN(Cc1ccsc1)CC(Cn1cncn1)C2 (stereo not drawn)	0.9174%	0.3069%	-
Cc1ccc(S(=O)(=O)N2CCN(Cc3ccncc3)CC2)c(Cl)c1	18.07%	8.949%	6.976%
CCn1cc(C(=O)N2CCCC(c3noc(C)n3)C2)cn1 (stereo not drawn)	3.419%	-4.467%	-30.79%
Cn1cc(CN2CCO[C@@H]3CN(Cc4ccoc4)C[C@@H]3C2)cn1	2.655%	-11.12%	-
CCc1c(C)[nH]c(C2(N)CCCCC2)nc1=O.Cl	-	-	-9.165%
Cc1c(CC(=O)N2CCN(CC(F)(F)F)CC2)nnn1-c1ccccc1	12.26%	-7.065%	25.5%
Cn1ccnc1-c1nccn1C[C@@H]1CCCN2CCCC[C@H]12	7.527%	7.463%	-
CCc1c(C(=O)N2CCC3(CCCN(CCO)C3=O)C2)csc1C (stereo not drawn)	-1.754%	11.59%	-4.111%
CC(C)COCC1CN(Cc2ccc3c(c2)OCO3)Cc2ncn(C)c21 (stereo not drawn)	-3.846%	-14.85%	-
CCc1nc(CN(C)C2CCN(Cc3ccc(Cl)s3)C2)no1 (stereo not drawn)	20.51%	1.024%	-3.961% and 0.5471%
CCc1cccc(N2CCC(NC(=O)c3cc[nH]n3)CC2)c1	-5.405%	-4.486%	-21.06%
Nc1nccc(C2CCN(CCO)C2)n1 (stereo not drawn)	14.18%	-	-15.74%
CCCc1noc(CCC(=O)N2CCCC2c2ccc(OC)cc2)n1 (stereo not drawn)	15.25%	1.651%	24.48%
CCOCC(=O)NCc1cc(C2CC2)n(C2CCCC2)n1	0%	-10.92%	3.633% and 5.01%
c1csc(N2CCCN(c3ncnc4sccc34)CC2)n1	22.35%	-6.319%	24.28%
CC(C)CCNC(=O)Cc1cnc(-n2cccc2)s1	20%	-	-16.17%
CN(C)CCN1Cc2ncn(C)c2C(COCC(=O)N(C)C)C1 (stereo not drawn)	5.556%	-19.07%	-9.453%
COCCO[C@H]1COCCN(C2CCN(C)CC2)C1	21.62%	1.193%	-19.72%
Cc1cc(C(=O)N2CCCC(C(=O)c3cccs3)C2)c(=O)[nH]c1C (stereo not drawn)	13.27%	-6.152%	10.48%
CC(=O)N1CCN(C(=O)NCCc2ccc(Cl)s2)CC1	14.78%	-18.91%	-2.646%
COCC(=O)N1CCC2(CC1)CN(c1cncnc1)C(=O)CO2	6%	2.719%	29.05%
Cc1n[nH]cc1CNCC(c1ccsc1)N(C)C (stereo not drawn)	13.79%	-28.85%	18.4%
CNCc1ccc([C@@H]2CN(C)C[C@H]2C(N)=O)cc1.Cl	-	-	-0.1339%
O=C(O)C(F)(F)F.O=C(O)C(F)(F)F.O=C(O)C(F)(F)F.[H][C@@]12CCN(Cc3cnn(C)c3)[C@@]1([H])CCN2Cc1cccc(C)n1	-	-	23.65%
Cc1ccoc1C(=O)N1Cc2c(Cn3ccnc3)nn(C)c2C1	21%	-17.29%	-
COC(=O)CCc1c(C)nn(-c2nc(C)cc(=O)[nH]2)c1C	8.738%	-11.73%	-18.05%
[H][C@@]12C[C@H](c3nc(C)no3)CN(Cc3ccncc3)[C@]1([H])CCO2	-	-	41.81%
Cc1cccc(C(=O)NCCCN2CCc3ccccc3C2)c1C	10.34%	-5.703%	17.84%
Cc1cc(N2CCC3(CCC(=O)N(CC4CC4)C3)CC2)ncn1	-18.03%	-30.77%	-22.06%
CC(C)NC(=O)N1CCC2(CCC(=O)N2CCN(C)C)CC1	17.31%	-32.43%	-
CN(C(=O)Nc1nncs1)C1CCN(c2ccccc2Cl)C1=O (stereo not drawn)	18.07%	-8.609%	-23.11%
Cc1occc1C(=O)NCC(=O)N(C)CCCOc1ccc(F)cc1	8.791%	-2.124%	22.31%
Fc1cc(F)cc(CN2CCC(c3cc4ncccc4cn3)CC2)c1	8.451%	10.28%	29.54%
O=C(c1ccccc1-n1cnnn1)N1CCC2(CC1)OCCO2	20%	-5.939%	13.07%
O=C1CCC(c2ccc(Cl)cc2)=NN1CN1CCCCCC1	17.5%	8.491%	-2.466%
O=C(O)C(F)(F)F.O=C1CC[C@]2(CC[C@@H](NC(=O)NCc3cccnc3)CC2)N1	-	-	25.27%
O=C(CSc1ccc2c(c1)OCCO2)NS(=O)(=O)c1cccs1	-21.21%	-28.08%	14.44%
CN(C)c1ncccc1CNC(=O)NCCN(C)C1CCCC1	9.649%	-0.6093%	25.25%
O=C(C[C@H]1[C@H]2CN(C(=O)c3cccnc3)C[C@@H]12)Nc1cccnc1	7.895%	-34.44%	-
O=C(COc1cc(Cl)cc(Cl)c1)NCc1nncn1C1CC1	10.85%	-13.24%	-11.31%
Cc1nn(C)c(C)c1C1CCCN1CCCc1nc2ccccc2o1 (stereo not drawn)	38.1%	-9.544%	33.72%
Fc1ccc(-c2nccnc2C2CCCNC2)cc1 (stereo not drawn)	11.72%	9.173%	31.15%
CCc1ccc(CN2Cc3nccn3CC(CN3CCOCC3)C2)o1 (stereo not drawn)	22.94%	-6.819%	-
Cc1cc(NC(=O)NCCOc2ccc(Cl)cn2)no1	10%	-18.08%	-14.22%
Cn1c(NCC(O)c2ccc(Cl)cc2)c(C#N)c(=O)n(C)c1=O (stereo not drawn)	13.56%	-1.351%	10.9%
O=C(c1cc(F)ccc1F)C1CCN(C(=O)c2ccc(=O)[nH]n2)CC1	5.333%	-8.408%	-13.46%
[H][C@]12CC[C@@]3(N=C(CC)N(CCOC)C3=O)[C@@]1([H])CN(S(=O)(=O)CC)C2	-	-	8.53% and 16.52%
CC(CC(=O)NS(C)(=O)=O)C1CCCCC1 (stereo not drawn)	17.39%	-11.48%	32.87%
CO[C@H]1CCN(S(=O)(=O)c2cn(C)cn2)[C@H]1Cc1cccnc1	15.09%	-8.54%	-
O=C(NCC(F)(F)F)C1CSCN1S(=O)(=O)c1ccccc1F (stereo not drawn)	7.826%	-25.79%	-32.25%
CN(CC1(C)COC1)C(=O)c1cc(-c2cnn(C)c2)nc2ccccc12	10.07%	22.56%	24.13%
CSc1ccsc1C(=O)NC(C)c1ccc2c(c1)CCC(=O)N2 (stereo not drawn)	22.86%	-	8.031%
O=C(CCn1cncn1)NCC(c1ccco1)N1CCCCC1 (stereo not drawn)	0.885%	-19.34%	1.86%

The last 4 entries again:

* O=C(NCC(F)(F)F)C1CSCN1S(=O)(=O)c1ccccc1F (stereo not drawn) | A: 7.826%; B: -25.79%; C: -32.25%
* CN(CC1(C)COC1)C(=O)c1cc(-c2cnn(C)c2)nc2ccccc12 | A: 10.07%; B: 22.56%; C: 24.13%
* CSc1ccsc1C(=O)NC(C)c1ccc2c(c1)CCC(=O)N2 (stereo not drawn) | A: 22.86%; C: 8.031%
* O=C(CCn1cncn1)NCC(c1ccco1)N1CCCCC1 (stereo not drawn) | A: 0.885%; B: -19.34%; C: 1.86%